In publication PMC2702278:
No constants are given. Whether binding was seen depends on the method and setting. In cells and extracts the contact can be indirect. Here binding means that the protein was enriched with, or labelled near, the bait; the list need not be complete.

By UniProt entry, the sequences of proteins in these tests, tags left out. Where a name states a change or a piece, a line headed by the entry shows the natural chain unless it says otherwise.
UniProt Q96B97: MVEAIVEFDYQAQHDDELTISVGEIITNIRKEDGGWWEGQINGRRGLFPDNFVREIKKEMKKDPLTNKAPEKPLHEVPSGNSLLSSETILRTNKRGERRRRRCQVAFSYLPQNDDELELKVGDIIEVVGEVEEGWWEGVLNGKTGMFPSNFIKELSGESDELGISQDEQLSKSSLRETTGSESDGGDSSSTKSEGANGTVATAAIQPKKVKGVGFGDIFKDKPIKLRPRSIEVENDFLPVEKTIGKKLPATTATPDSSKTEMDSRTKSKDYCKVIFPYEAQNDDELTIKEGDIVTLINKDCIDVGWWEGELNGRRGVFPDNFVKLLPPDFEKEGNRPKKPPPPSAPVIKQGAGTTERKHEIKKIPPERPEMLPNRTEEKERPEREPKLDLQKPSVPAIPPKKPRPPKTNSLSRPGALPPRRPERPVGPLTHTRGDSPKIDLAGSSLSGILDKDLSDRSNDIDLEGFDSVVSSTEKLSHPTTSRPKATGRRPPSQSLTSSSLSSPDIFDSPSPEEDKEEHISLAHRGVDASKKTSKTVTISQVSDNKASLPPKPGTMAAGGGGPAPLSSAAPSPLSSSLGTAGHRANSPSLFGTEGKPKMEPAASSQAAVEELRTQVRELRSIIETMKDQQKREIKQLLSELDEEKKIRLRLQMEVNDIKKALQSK

Assays:
Assay in all cases: affinity purification with mass spectrometry; GST-fusion SH3 domain (about 10 μg on 40 μl Glutathione Sepharose 4B) incubated 4 h at 4°C with HeLa lysate pre-cleared on GST beads; 20 mM Tris pH 7.5, 150 mM NaCl, 5 mM EDTA, 5% glycerol, 0.5% Triton X-100 (washes 0.1%); SDS-PAGE, in-gel trypsin digestion, LC-MS/MS; hits also found with GST alone removed; only the target purified
[1] = target: GST-fusion SH3C domain of Ruk/CIN85 (UniProt Q96B97)
[2] = target: GST-fusion SH3B domain of Ruk/CIN85 (UniProt Q96B97)
[3] = target: GST-fusion SH3A domain of Ruk/CIN85 (UniProt Q96B97)

Measured: binding

B1: LL5β (protein, UniProt Q86SQ0 1-1253)
chain: MEEHSYIQKELDLQNGSLEEDSVVHSVENDSQNMMESLSPKKYSSSLRFKANGDYSGSYLTLSQPVPAKRSPSPLGTSVRSSPSLAKIQGSKQFSYDGTDKNIPMKPPTPLLNTTSSLSGYPLGRADFDHYTGRDSERALRLSEKPPYSKYSSRHKSHDNVYSLGGLEGRKASGSLLAMWNGSSLSDAGPPPISRSGAASMPSSPKQARKMSIQDSLALQPKLTRHKELASENINLRTRKYSSSSLSHMGAYSRSLPRLYRATENQLTPLSLPPRNSLGNSKRTKLGEKDLPHSVIDNDNYLNFSSLSSGALPYKTSASEGNPYVSSTLSVPASPRVARKMLLASTSSCASDDFDQASYVGTNPSHSLLAGESDRVFATRRNFSCGSVEFDEADLESLRQASGTPQPALRERKSSISSISGRDDLMDYHRRQREERLREQEMERLERQRLETILSLCAEYTKPDSRLSTGTTVEDVQKINKELEKLQLSDEESVFEEALMSPDTRYRCHRKDSLPDADLASCGSLSQSSASFFTPRSTRNDELLSDLTRTPPPPSSTFPKASSESSYLSILPKTPEGISEEQRSQELAAMEETRIVILNNLEELKQKIKDINDQMDESFRELDMECALLDGEQKSETTELMKEKEILDHLNRKIAELEKNIVGEKTKEKVKLDAEREKLERLQELYSEQKTQLDNCPESMREQLQQQLKRDADLLDVESKHFEDLEFQQLEHESRLDEEKENLTQQLLREVAEYQRNIVSRKEKISALKKQANHIVQQAQREQDHFVKEKNNLIMMLQREKENLCNLEKKYSSLSGGKGFPVNPNTLKEGYISVNEINEPCGNSTNLSPSTQFPADADAVATEPATAVLASQPQSKEHFRSLEERKKQHKEGLYLSDTLPRKKTTSSISPHFSSATMGRSITPKAHLPLGQSNSCGSVLPPSLAAMAKDSESRRMLRGYNHQQMSEGHRQKSEFYNRTASESNVYLNSFHYPDHSYKDQAFDTLSLDSSDSMETSISACSPDNISSASTSNIARIEEMERLLKQAHAEKTRLLESREREMEAKKRALEEEKRRREILEKRLQEETSQRQKLIEKEVKIRERQRAQARPLTRYLPVRKEDFDLRSHVETAGHNIDTCYHVSITEKTCRGFLIKMGGKIKTWKKRWFVFDRNKRTFSYYADKHETKLKGVIYFQAIEEVYYDHLKNANKSPNPLLTFSVKTHDRIYYMVAPSPEAMRIWMDVIVTGAEGYTHFLL
binds: [1] | [2] | [3]

B2: Palmdelphin (protein, UniProt Q9NP74 1-551)
chain: MEEAELVKGRLQAITDKRKIQEEISQKRLKIEEDKLKHQHLKKKALREKWLLDGISSGKEQEEMKKQNQQDQHQIQVLEQSILRLEKEIQDLEKAELQISTKEEAILKKLKSIERTTEDIIRSVKVEREERAEESIEDIYANIPDLPKSYIPSRLRKEINEEKEDDEQNRKALYAMEIKVEKDLKTGESTVLSSIPLPSDDFKGTGIKVYDDGQKSVYAVSSNHSAAYNGTDGLAPVEVEELLRQASERNSKSPTEYHEPVYANPFYRPTTPQRETVTPGPNFQERIKIKTNGLGIGVNESIHNMGNGLSEERGNNFNHISPIPPVPHPRSVIQQAEEKLHTPQKRLMTPWEESNVMQDKDAPSPKPRLSPRETIFGKSEHQNSSPTCQEDEEDVRYNIVHSLPPDINDTEPVTMIFMGYQQAEDSEEDKKFLTGYDGIIHAELVVIDDEEEEDEGEAEKPSYHPIAPHSQVYQPAKPTPLPRKRSEASPHENTNHKSPHKNSISLKEQEESLGSPVHHSPFDAQTTGDGTEDPSLTALRMRMAKLGKKVI
binds: [1] | [2] | [3]

B3: RICH1 (protein, UniProt Q68EM7 1-881)
chain: MKKQFNRMKQLANQTVGRAEKTEVLSEDLLQIERRLDTVRSICHHSHKRLVACFQGQHGTDAERRHKKLPLTALAQNMQEASTQLEDSLLGKMLETCGDAENQLALELSQHEVFVEKEIVDPLYGIAEVEIPNIQKQRKQLARLVLDWDSVRARWNQAHKSSGTNFQGLPSKIDTLKEEMDEAGNKVEQCKDQLAADMYNFMAKEGEYGKFFVTLLEAQADYHRKALAVLEKTLPEMRAHQDKWAEKPAFGTPLEEHLKRSGREIALPIEACVMLLLETGMKEEGLFRIGAGASKLKKLKAALDCSTSHLDEFYSDPHAVAGALKSYLRELPEPLMTFNLYEEWTQVASVQDQDKKLQDLWRTCQKLPPQNFVNFRYLIKFLAKLAQTSDVNKMTPSNIAIVLGPNLLWARNEGTLAEMAAATSVHVVAVIEPIIQHADWFFPEEVEFNVSEAFVPLTTPSSNHSFHTGNDSDSGTLERKRPASMAVMEGDLVKKESFGVKLMDFQAHRRGGTLNRKHISPAFQPPLPPTDGSTVVPAGPEPPPQSSRAESSSGGGTVPSSAGILEQGPSPGDGSPPKPKDPVSAAVPAPGRNNSQIASGQNQPQAAAGSHQLSMGQPHNAAGPSPHTLRRAVKKPAPAPPKPGNPPPGHPGGQSSSGTSQHPPSLSPKPPTRSPSPPTQHTGQPPGQPSAPSQLSAPRRYSSSLSPIQAPNHPPPQPPTQATPLMHTKPNSQGPPNPMALPSEHGLEQPSHTPPQTPTPPSTPPLGKQNPSLPAPQTLAGGNPETAQPHAGTLPRPRPVPKPRNRPSVPPPPQPPGVHSAGDSSLTNTAPTASKIVTDSNSRVSEPHRSIFPEMHSDSASKDVPGRILLDIDNDTESTAL
binds: [1] | [2] | [3]

B4: Synaptojanin 2 (protein, UniProt O15056 1-1496)
chain: MALSKGLRLLGRLGAEGDCSVLLEARGRDDCLLFEAGTVATLAPEEKEVIKGQYGKLTDAYGCLGELRLKSGGTSLSFLVLVTGCTSVGRIPDAEIYKITATDFYPLQEEAKEEERLIALKKILSSGVFYFSWPNDGSRFDLTVRTQKQGDDSSEWGNSFFWNQLLHVPLRQHQVSCCDWLLKIICGVVTIRTVYASHKQAKACLVSRVSCERTGTRFHTRGVNDDGHVSNFVETEQMIYMDDGVSSFVQIRGSVPLFWEQPGLQVGSHHLRLHRGLEANAPAFDRHMVLLKEQYGQQVVVNLLGSRGGEEVLNRAFKKLLWASCHAGDTPMINFDFHQFAKGGKLEKLETLLRPQLKLHWEDFDVFTKGENVSPRFQKGTLRMNCLDCLDRTNTVQSFIALEVLHLQLKTLGLSSKPIVDRFVESFKAMWSLNGHSLSKVFTGSRALEGKAKVGKLKDGARSMSRTIQSNFFDGVKQEAIKLLLVGDVYGEEVADKGGMLLDSTALLVTPRILKAMTERQSEFTNFKRIRIAMGTWNVNGGKQFRSNVLRTAELTDWLLDSPQLSGATDSQDDSSPADIFAVGFEEMVELSAGNIVNASTTNKKMWGEQLQKAISRSHRYILLTSAQLVGVCLYIFVRPYHVPFIRDVAIDTVKTGMGGKAGNKGAVGIRFQFHSTSFCFICSHLTAGQSQVKERNEDYKEITQKLCFPMGRNVFSHDYVFWCGDFNYRIDLTYEEVFYFVKRQDWKKLLEFDQLQLQKSSGKIFKDFHEGAINFGPTYKYDVGSAAYDTSDKCRTPAWTDRVLWWRKKHPFDKTAGELNLLDSDLDVDTKVRHTWSPGALQYYGRAELQASDHRPVLAIVEVEVQEVDVGARERVFQEVSSFQGPLDATVVVNLQSPTLEEKNEFPEDLRTELMQTLGSYGTIVLVRINQGQMLVTFADSHSALSVLDVDGMKVKGRAVKIRPKTKDWLKGLREEIIRKRDSMAPVSPTANSCLLEENFDFTSLDYESEGDILEDDEDYLVDEFNQPGVSDSELGGDDLSDVPGPTALAPPSKSPALTKKKQHPTYKDDADLVELKRELEAVGEFRHRSPSRSLSVPNRPRPPQPPQRPPPPTGLMVKKSASDASISSGTHGQYSILQTARLLPGAPQQPPKARTGISKPYNVKQIKTTNAQEAEAAIRCLLEARGGASEEALSAVAPRDLEASSEPEPTPGAAKPETPQAPPLLPRRPPPRVPAIKKPTLRRTGKPLSPEEQFEQQTVHFTIGPPETSVEAPPVVTAPRVPPVPKPRTFQPGKAAERPSHRKPASDEAPPGAGASVPPPLEAPPLVPKVPPRRKKSAPAAFHLQVLQSNSQLLQGLTYNSSDSPSGHPPAAGTVFPQGDFLSTSSATSPDSDGTKAMKPEAAPLLGDYQDPFWNLLHHPKLLNNTWLSKSSDPLDSGTRSPKRDPIDPVSAGASAAKAELPPDHEHKTLGHWVTISDQEKRTALQVFDPLAKT
binds: [1] | [2] | [3]
